As usually defined, the IC50 is the point on the concentration scale where inhibition reaches its midpoint. What is called Ki is the dissociation constant of the complex between target and ligand, obtained from inhibition or displacement. By Kb is commonly meant the affinity of an antagonist, worked out from how it opposes an agonist.

Protein sequences, listed by entry. Tags and fused reporters are not part of them.
UniProt O43613, whole entry: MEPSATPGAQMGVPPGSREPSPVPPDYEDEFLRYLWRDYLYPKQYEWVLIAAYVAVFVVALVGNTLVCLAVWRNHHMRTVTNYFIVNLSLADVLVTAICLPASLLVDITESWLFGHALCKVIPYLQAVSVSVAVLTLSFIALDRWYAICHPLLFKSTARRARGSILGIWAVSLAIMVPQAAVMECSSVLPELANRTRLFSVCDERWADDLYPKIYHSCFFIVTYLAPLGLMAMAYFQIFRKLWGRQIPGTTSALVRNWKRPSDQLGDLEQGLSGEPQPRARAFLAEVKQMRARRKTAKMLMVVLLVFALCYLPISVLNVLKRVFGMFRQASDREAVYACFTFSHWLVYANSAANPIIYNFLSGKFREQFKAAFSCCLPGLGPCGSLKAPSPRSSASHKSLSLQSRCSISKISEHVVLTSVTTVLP
UniProt O43614, whole entry: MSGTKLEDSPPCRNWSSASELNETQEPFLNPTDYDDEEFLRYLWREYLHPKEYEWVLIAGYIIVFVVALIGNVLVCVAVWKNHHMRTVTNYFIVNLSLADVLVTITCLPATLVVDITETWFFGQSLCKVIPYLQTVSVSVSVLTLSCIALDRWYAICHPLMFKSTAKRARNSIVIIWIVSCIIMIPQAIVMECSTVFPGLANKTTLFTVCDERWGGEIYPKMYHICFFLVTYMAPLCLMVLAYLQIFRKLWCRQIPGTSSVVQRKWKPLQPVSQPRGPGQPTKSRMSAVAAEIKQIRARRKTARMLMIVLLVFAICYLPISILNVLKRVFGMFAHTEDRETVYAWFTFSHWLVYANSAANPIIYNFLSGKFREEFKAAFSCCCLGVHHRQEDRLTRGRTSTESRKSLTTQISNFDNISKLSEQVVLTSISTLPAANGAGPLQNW
UniProt P41145, whole entry: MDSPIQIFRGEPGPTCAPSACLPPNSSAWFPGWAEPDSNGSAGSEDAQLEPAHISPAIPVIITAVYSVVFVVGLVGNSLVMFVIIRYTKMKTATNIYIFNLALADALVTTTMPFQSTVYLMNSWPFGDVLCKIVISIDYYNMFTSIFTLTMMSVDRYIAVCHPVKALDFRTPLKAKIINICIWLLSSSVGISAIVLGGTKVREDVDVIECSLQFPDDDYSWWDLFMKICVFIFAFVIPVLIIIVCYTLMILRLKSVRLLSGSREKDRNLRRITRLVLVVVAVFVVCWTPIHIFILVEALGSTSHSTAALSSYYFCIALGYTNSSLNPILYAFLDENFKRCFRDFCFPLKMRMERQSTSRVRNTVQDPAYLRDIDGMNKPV

The text below walks through data of patent US20260070922A1, “PYRAZOLE AND IMIDAZOLE DERIVATIVES AS DUAL OREXIN AND KAPPA-OPIOID RECEPTORS MODULATORS COMPOSITION, METHODS FOR TREATING NEUROLOGICAL AND PSYCHIATRIC DISORDERS” (HAGER BIOSCIENCES, LLC, priority 2022, published 2026).

Assay [1] concerns the target Orexin type 1 (OX1R) receptor (Homo sapiens, UniProt O43613). Description: In vitro orexin antagonism assay: intracellular calcium measurement (FLIPR), orexin-A 3 nM as agonist. In kind it is cell-based.
Assay [2] deals with human orexin-2 receptor (OX2R) (Homo sapiens, UniProt O43614). The description is as above.
The target in assay [3] is human k-opioid receptor (kOR) (Homo sapiens, UniProt P41145). Description: Human k-opioid (KOP) receptor (agonist radioligand [3H]U-69593) binding assay, transfected RBL cell membranes.

Structures were worked out from names or drawings and are uncertain.

As to `O=C(c1c(-c2ccccc2)nn2c1COCC2)N1CCC[C@H]1Cn1ccc(-c2ccc(C(F)(F)F)cc2)n1`, the “OX1R, % Inh. @ 1 uM” value in assay [1] is given as 9.22%. Besides, the “OX2R, % Inh. @ 1 uM” value in assay [2] is recorded as 6.67%. In assay [3] (@ 1 uM), the “KOR % Inh. @ 1 uM” value is on record as 85%. For the same compound, in assay [3] (read-out: KOR IC50, first value of IC50/Ki cell), the concentration for half-maximal inhibition (IC50) is 130 nM. The Ki in assay [3] (read-out: KOR Ki, second value of IC50/Ki cell) is 69 nM.

As to `O=C(c1nn2c(c1-c1ccccn1)COCC2)N1[C@H](Cn2ccc(-c3ccc(F)cn3)n2)C[C@@H]2C[C@@H]21`, the “OX1R, % Inh. @ 1 uM” value in assay [1] is 97%. Also, in assay [1] (read-out: OX1R IC50, first value of IC50/Kb cell), the IC50 amounted to 15 nM. The Kb in assay [1] (read-out: OX1R Kb, second value of IC50/Kb cell) amounted to 3 nM. In assay [2], the “OX2R, % Inh. @ 1 uM” value is given as 30%.
